Patent US12203124B2, “Methods for improved rapid antimicrobial susceptibility testing” (priority 2016, dated 2025)

Tested on: K. pneumoniae
Assay: Metabolic assay, percent correct score versus algorithmically called MIC
Type: cell-based
Conditions: more than 30 strains

| Molecule | percent correct score, agreement with algorithmically called MIC [%] |
| --- | --- |
| CO/N=C(\C(=O)N[C@@H]1C(=O)N2C(C(=O)O)=C(CSc3nc(=O)c(=O)[nH]n3C)CS[C@H]12)c1csc(N)n1 [CRO, Ceftriaxone] | 100 |
| Gentamycin | 83 |
